{
  "source": "the supplement of paper PMC7824004",
  "note": "Some of the results follow. The data scatter; read single values as rough.",
  "data": [
    {"system": "Candida albicans SN425", "assay": "biofilm OD600 B-score; higher = more biofilm (less inhibition)", "conditions": "10 µM; assay detail: High-throughput adherence inhibition optical density biofilm assay with C. albicans SN425 in RPMI-1640/MOPS pH 7.0, 384-well plates. …", "method": "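High-throughput adherence inhibition optical density biofilm assay with C. albicans SN425 in RPMI-1640/MOPS pH 7.0, 384-well plates. Compound (10 µM) was present only during the 90 min adherence step, then washed out, and the biofilm grew 24 h without compound. Biofilm was read as OD600 after removing the media. Scores are the difference from the mean in standard deviations and the plate B-score.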", "values": [
      {"smiles": "O=C(C1CCN(S(=O)(=O)c2ccc(F)cc2)CC1)N1CCCC1", "biofilm OD600 B-score": 0.639},
      {"smiles": "Cn1c(NC(=O)c2ccc(F)cc2)nc2ccccc21", "biofilm OD600 B-score": -1.07},
      {"smiles": "O=C(NCc1cccs1)c1ccc2c(c1)OCO2", "biofilm OD600 B-score": -1.39},
      {"smiles": "COc1ccc(NC(=O)Nc2ccc(Cl)cn2)cc1", "biofilm OD600 B-score": -0.0637},
      {"smiles": "CCSc1nnc(NC(=O)NC2CCCCC2)s1", "biofilm OD600 B-score": 0.126},
      {"smiles": "CCc1ccccc1NC(=O)C1CCN(C(=O)c2cccc(Cl)c2)CC1", "biofilm OD600 B-score": 0.533},
      {"smiles": "Cc1ccc(OCCCN(C)C)cc1C", "biofilm OD600 B-score": 0.273},
      {"smiles": "CCN(CC)C(=O)CNS(=O)(=O)c1ccc(C)cc1", "biofilm OD600 B-score": -2.64},
      {"smiles": "CC(=O)Nc1ccc(CNc2ccc3c(c2)CCC3)cc1", "biofilm OD600 B-score": -0.701},
      {"smiles": "O=C(NCCc1cccc(Cl)c1)c1ccco1", "biofilm OD600 B-score": 2.43},
      {"smiles": "O=C1CN(c2nc(-c3ccc(Cl)cc3)cs2)CCN1", "biofilm OD600 B-score": 3.63},
      {"smiles": "CC(=O)c1ccc(N2CCN(C(=O)c3c(F)cccc3F)CC2)c(F)c1", "biofilm OD600 B-score": -3.29},
      {"smiles": "CS(=O)(=O)Nc1ccccc1C(=O)NCc1ccccc1", "biofilm OD600 B-score": 0.689},
      {"smiles": "CCOC(=O)N1CCC(NC2C3CC4CC(C3)CC2C4)CC1", "note": "(configuration not stated)", "biofilm OD600 B-score": -4.23},
      {"smiles": "CN(CC(=O)NCC1CCCO1)S(=O)(=O)c1ccc(Cl)cc1", "note": "(configuration not stated)", "biofilm OD600 B-score": 0.76},
      {"smiles": "O=C(CCc1ccccc1)Nc1ccccn1", "biofilm OD600 B-score": -1.13},
      {"smiles": "CCN(CC)C(=O)c1ccc(OC)c(OC)c1", "biofilm OD600 B-score": 1.27}
    ]}
  ]
}
